According to PubChem BioAssay AID493014 (National Center for Advancing Translational Sciences (NCATS), 2011):
The other results are listed elsewhere or left out. The main result of the screen is listed elsewhere. These columns were measured beside it and carry no call. Compounds called inactive in the main read-out are mostly missing here. Words in brackets tell the shape of the fitted curve; partial curves, single points and poor fits give uncertain potencies.

Assay: qHTS Assay to Find Inhibitors of Chronic Active B-Cell Receptor Signaling
Conditions: ABC-DLBCL IkBa-CBG/CBR reporter, luminescence ratio (green luciferase fused to IkBa over red control in TMD8 lymphoma cells), 4 h
Procedure, shortened: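 Compounds up to 46 uM were incubated four hours with TMD8 cells whose green CBG68 luciferase is fused to IkappaBalpha; red CBR luminescence normalised the signal, and concentration-effect curves were fitted to fusion, red and ratio data.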

[1] = measured here: CBR red luminescence, cell number
[2] = measured here: IkBa-CBG green luminescence

SMILES | AC50 [1] | AC50 [2]
Nc1c(C(=O)NC2CCCC2)c2nc3ccccc3nc2n1/N=C/c1ccco1 | 0.92 µM [falling, full curve, poor fit] | –
N#C/C(=C(/O)c1ccc([N+](=O)[O-])o1)c1nc2ccccc2[nH]1 | 1.12 µM [falling, full curve, poor fit] | –
O=C(Nc1ccccc1)c1ccc2c(c1)OCCO2 | 10 µM [falling, partial curve] | –
CCc1ccccc1-n1c(SCC(=O)NC)nnc1-c1cccnc1 | 3.55 µM [falling, partial curve, poor fit] | –
Cc1ccc(C(=O)c2cc([N+](=O)[O-])ccc2N2CCCCC2)c(C)c1 | 2.91 µM [rising, full curve] | 3.66 µM [falling, full curve]
COc1ccc(N=Nc2ccc3ccccc3c2)c(O)c1 | 0.355 µM [falling, full curve] | –
Cc1ccc(NC(=O)Nc2ccno2)cc1 | 11.2 µM [rising, partial curve, poor fit] | –
Cc1ccnc(NC(=O)CNC(=O)C23CC4CC(CC(C4)C2)C3)c1 | 29.1 µM [rising, single point] | –
COC(=O)c1sccc1NC(=O)Nc1cc(OC)ccc1OC | 11.2 µM [falling, partial curve, poor fit] | –
CCc1ccc(CNc2ccc3c(c2)ncn3C)cc1 | 11.2 µM [rising, partial curve] | –
O=[N+]([O-])c1ccc(Sc2n[nH]c(-c3ccco3)n2)nc1 | 1.41 µM [rising, partial curve, poor fit] | –
CCC1(c2cccc(Cl)c2)NC(=O)N(Cc2cc(C(=O)OC)c(C)o2)C1=O (stereo unspecified) | 20.6 µM [falling, partial curve, poor fit] | –
Cc1cc(NC(=O)CN2CCCC(C)C2)no1 (stereo unspecified) | 22.4 µM [falling, single point] | –
CCCCCCSc1ccc([C@H]2N[C@@](CC(C)C)(C(=O)OC)[C@H]3C(=O)N(C)C(=O)[C@@H]23)cc1 | 29.1 µM [falling, partial curve, poor fit] | –
CC(=O)Nc1ccc(NC(=O)C(C)OC(=O)CSc2ccc(Br)cc2C)cc1 (stereo unspecified) | 14.1 µM [rising, partial curve, poor fit] | –
CCc1nc(Nc2ccncc2)c2oc3ccccc3c2n1 | 12.6 µM [falling, partial curve] | –
COc1ccc(NC(=O)C2=CC(c3ccc(OC)c(OC)c3)=NS(=O)(=O)N2C)cc1 | 35.5 µM [falling, single point] | –
COc1ccc(-n2c(CN3CCN(c4ccc(F)cc4)CC3)nc3ccc([N+](=O)[O-])cc3c2=O)c(OC)c1 | 0.112 µM [falling, full curve, poor fit] | –
Cn1c(=O)n(Cc2ccccc2)c(=O)c2c1nc1n2CCCN1Cc1ccccc1 | 25.9 µM [rising, partial curve, poor fit] | –
O=C(Nc1ccc(F)cc1)c1nn(-c2ccccc2)c(=O)cc1Cl | 10 µM [falling, partial curve] | 35.5 µM [rising, partial curve, poor fit]
O=Cc1ccnc(-c2ccc(OC(=O)c3ccco3)cc2)n1 | 31.6 µM [rising, single point] | 35.5 µM [falling, single point]

SMILES | AC50 [1] | AC50 [2]
CN(CC(=O)Nc1ccc(F)c(F)c1F)C1CCCCC1 | 20.6 µM [falling, single point] | –
O=c1[nH]c(-c2ccccc2)nc2sc(-c3ccccc3)cc12 | 1.58 µM [falling, full curve] | –
CCOc1ccc(CN(C)C(=O)[C@H](C)NC(=O)c2ccco2)cc1OC | 14.1 µM [rising, partial curve, poor fit] | –
O=c1[nH]c2ccccc2nc1CCc1ccccc1 | 0.1 µM [rising, full curve, poor fit] | –
Cn1cccc1/C=C1\SC(=Nc2ccccc2)NC1=O | 8.91 µM [falling, partial curve] | –
Cc1ccc(N(C(=O)CNC(=O)c2ccco2)C(C(=O)NC2CCCCC2)c2cccnc2)cc1 (stereo unspecified) | 11.2 µM [falling, partial curve, poor fit] | –
O=c1cc(O)c(-c2cccc(Cl)c2)c(Cl)[nH]1 | 0.731 µM [falling, full curve, poor fit] | –
CN1CCN(Cc2cc(=O)oc3ccc(Cl)cc23)CC1 | 7.08 µM [rising, full curve, poor fit] | –
CCOc1cc(C2C(C#N)=C(N)OC3=C2C(=O)CC(C)(C)C3)cc([N+](=O)[O-])c1O (stereo unspecified) | 20 µM [falling, single point] | –
Cc1ccc(NC(=O)Cn2c(CCC(=O)O)ccc2-c2ccc(Cl)cc2)cc1 | 1.41 µM [rising, partial curve] | –
Cc1ccsc1/C=C1\CCC(C2CCCC2)C1=O (stereo unspecified) | 1.58 µM [rising, full curve] | –
O=C(CCN1C(=O)/C(=C/c2ccc(Cl)cc2)SC1=S)Nc1cccnc1 | 10 µM [falling, partial curve] | –
Cc1ccc(N=Cc2cc(Cc3ccccc3Cl)cc([N+](=O)[O-])c2O)c(O)c1 | 12.6 µM [falling, partial curve, poor fit] | –
COc1cccc(/C=C/C(=O)c2ccc(NC3=NCCCS3)cc2)c1 | 35.5 µM [falling, single point] | –
CCCN(Cc1nc(-c2ccc(Cl)cc2)no1)CC1CCCO1 (stereo unspecified) | 35.5 µM [rising, single point] | –
O=C1c2cccc3c(O)ccc(c23)C(=O)N1Cc1ccccc1 | – | 11.6 µM [rising, partial curve, poor fit]
O=C(c1ccc(NS(=O)(=O)c2ccccc2)cc1)N1CCCC1 | 29.1 µM [falling, single point] | –
CCOC(=O)c1[nH]c(C)c(C(=O)OCc2c(C)noc2C)c1C | 2.91 µM [rising, single point] | –
CCC(=O)Oc1cccc(C(=O)Nc2cccc(NC(=O)c3ccco3)c2)c1 | 7.08 µM [falling, full curve, poor fit] | –
Cc1cc2ncc(-c3cccc(Cl)c3)cn2n1 | 12.6 µM [rising, partial curve, poor fit] | –
CN1CCc2c(sc(NC(=O)c3cc(Cl)sc3Cl)c2C(N)=O)C1 | 17.8 µM [falling, single point] | –

3 structures out of the list, sorted by molar mass, falling.
SMILES | AC50 [1] | AC50 [2]
O=C(CCN1C(=O)/C(=C/c2ccc(Cl)cc2)SC1=S)Nc1cccnc1 | 10 µM [falling, partial curve] | –
CCC(=O)Oc1cccc(C(=O)Nc2cccc(NC(=O)c3ccco3)c2)c1 | 7.08 µM [falling, full curve, poor fit] | –
Cc1cc2ncc(-c3cccc(Cl)c3)cn2n1 | 12.6 µM [rising, partial curve, poor fit] | –

The list goes on.

SMILES | AC50 [1] | AC50 [2]
O=C(CCCCCCCC(=O)NNC(=O)Nc1ccccc1)NNC(=O)Nc1ccccc1 | 29.1 µM [rising, single point] | –
COc1ccc(NC(=O)CSc2nnc(NC(=O)Nc3ccccc3)s2)c(OC)c1 | 0.316 µM [falling, full curve, poor fit] | –
CCOC(=O)C(=CNNc1ccccc1)C(=O)OCC | 35.5 µM [falling, partial curve, poor fit] | –
CC(C)c1ccc(NC(=O)COc2ccc(F)cc2C(=O)c2cnn(-c3ccccc3)c2)cc1 | 5.8 µM [rising, full curve, poor fit] | –
O=C(Cc1ccc(Cl)cc1)Nc1ccc(S(=O)(=O)Nc2ncccn2)cc1 | 35.5 µM [rising, single point] | –
COc1cc(/C=C/c2ccc3cccc([N+](=O)[O-])c3n2)ccc1OCC#N | 20.6 µM [rising, partial curve, poor fit] | –
Cc1ccc(-n2nc(C)c(C(=O)O)n2)c(C)c1 | 1.3 µM [falling, partial curve] | –
C[C@H](CO)N1C[C@H](C)[C@@H](CN(C)S(=O)(=O)c2ccccc2)Oc2ccc(NC(=O)Cc3ccccc3)cc2C1=O | 29.1 µM [rising, single point] | –
COCCOc1cnn(-c2cc(Oc3ccc(C)cc3)ncn2)c(=O)c1Cl | 2.91 µM [rising, partial curve, poor fit] | –
O=C(O)c1ccc(NC(=S)NC(=O)c2cncc(Br)c2)cc1 | 0.891 µM [falling, full curve, poor fit] | –
O=C(Nc1ccc2nc(C3CC3)n(Cc3ccc(F)cc3)c(=O)c2c1)c1ccco1 | 35.5 µM [falling, single point] | –
Cc1ccc(SCC(=O)NCCc2ccccc2)cc1 | 3.16 µM [rising, partial curve, poor fit] | –
O=C(Nc1nc2c(F)cc(F)cc2s1)c1ccco1 | 8.91 µM [falling, partial curve] | –
O=C(CN1C(=O)C2CCCCC2C1=O)Nc1nc(-c2ccccn2)cs1 (stereo unspecified) | 6.51 µM [falling, partial curve, poor fit] | –
COc1ccc(/C=N/Nc2nc3ccccc3c(=O)n2-c2ccccc2)cc1OC | 5.8 µM [falling, full curve] | 0.058 µM [rising, full curve]
O=C(COc1ncnc2cc([N+](=O)[O-])ccc12)NCc1ccc2c(c1)OCO2 | 16.4 µM [falling, partial curve, poor fit] | –
O=C(NCc1ccc(F)cc1)c1cc2ccccn2n1 | 20.6 µM [rising, partial curve, poor fit] | –
C#CCOCCOCCOCCNc1nc(N2CCOCC2)nc(N2CCN(C(=O)[C@H](Cc3ccc(O)cc3)n3cc([C@@H](N)C(C)CC)nn3)CC2)n1 (stereo partly specified) | 6.31 µM [rising, single point] | –
CCCCC(=NCCc1c(C)[nH]c2ccc(OC)cc12)C1=C(O)CC(c2ccccc2)CC1=O (stereo unspecified) | 5.01 µM [rising, partial curve, poor fit] | –
CCOC(=O)C1(Cc2cccc(OC)c2)CCCN(Cc2cc(C(C)C)n[nH]2)C1 (stereo unspecified) | 35.5 µM [falling, single point] | –
